# The supplement of paper PMC10849652
# Chains of the proteins cited; added tags and fusions are not shown. Lines headed by an entry give the natural chain unless they say otherwise; changes in a name come on top.
# UniProt Q15048: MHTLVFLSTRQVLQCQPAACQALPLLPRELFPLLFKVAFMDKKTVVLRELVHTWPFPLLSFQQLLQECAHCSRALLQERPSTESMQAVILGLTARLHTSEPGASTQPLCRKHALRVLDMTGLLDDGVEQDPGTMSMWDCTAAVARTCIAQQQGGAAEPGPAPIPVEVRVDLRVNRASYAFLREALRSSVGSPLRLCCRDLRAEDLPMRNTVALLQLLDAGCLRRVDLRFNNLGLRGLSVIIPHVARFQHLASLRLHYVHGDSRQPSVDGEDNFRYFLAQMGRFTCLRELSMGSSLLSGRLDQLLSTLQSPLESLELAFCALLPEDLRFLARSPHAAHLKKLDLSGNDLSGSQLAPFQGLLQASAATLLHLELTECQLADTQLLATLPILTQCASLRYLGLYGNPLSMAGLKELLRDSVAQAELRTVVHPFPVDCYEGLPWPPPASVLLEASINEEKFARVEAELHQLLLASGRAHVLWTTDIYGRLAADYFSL
# UniProt Q9H6V9: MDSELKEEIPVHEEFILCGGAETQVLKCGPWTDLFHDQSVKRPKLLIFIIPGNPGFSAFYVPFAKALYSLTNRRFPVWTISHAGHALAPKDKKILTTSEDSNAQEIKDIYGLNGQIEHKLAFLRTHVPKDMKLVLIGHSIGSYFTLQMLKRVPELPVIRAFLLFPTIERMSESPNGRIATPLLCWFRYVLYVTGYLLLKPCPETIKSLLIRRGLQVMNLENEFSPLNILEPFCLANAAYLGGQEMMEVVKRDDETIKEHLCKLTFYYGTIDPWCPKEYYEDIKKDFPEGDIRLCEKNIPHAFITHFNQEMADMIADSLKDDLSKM
# UniProt P49916: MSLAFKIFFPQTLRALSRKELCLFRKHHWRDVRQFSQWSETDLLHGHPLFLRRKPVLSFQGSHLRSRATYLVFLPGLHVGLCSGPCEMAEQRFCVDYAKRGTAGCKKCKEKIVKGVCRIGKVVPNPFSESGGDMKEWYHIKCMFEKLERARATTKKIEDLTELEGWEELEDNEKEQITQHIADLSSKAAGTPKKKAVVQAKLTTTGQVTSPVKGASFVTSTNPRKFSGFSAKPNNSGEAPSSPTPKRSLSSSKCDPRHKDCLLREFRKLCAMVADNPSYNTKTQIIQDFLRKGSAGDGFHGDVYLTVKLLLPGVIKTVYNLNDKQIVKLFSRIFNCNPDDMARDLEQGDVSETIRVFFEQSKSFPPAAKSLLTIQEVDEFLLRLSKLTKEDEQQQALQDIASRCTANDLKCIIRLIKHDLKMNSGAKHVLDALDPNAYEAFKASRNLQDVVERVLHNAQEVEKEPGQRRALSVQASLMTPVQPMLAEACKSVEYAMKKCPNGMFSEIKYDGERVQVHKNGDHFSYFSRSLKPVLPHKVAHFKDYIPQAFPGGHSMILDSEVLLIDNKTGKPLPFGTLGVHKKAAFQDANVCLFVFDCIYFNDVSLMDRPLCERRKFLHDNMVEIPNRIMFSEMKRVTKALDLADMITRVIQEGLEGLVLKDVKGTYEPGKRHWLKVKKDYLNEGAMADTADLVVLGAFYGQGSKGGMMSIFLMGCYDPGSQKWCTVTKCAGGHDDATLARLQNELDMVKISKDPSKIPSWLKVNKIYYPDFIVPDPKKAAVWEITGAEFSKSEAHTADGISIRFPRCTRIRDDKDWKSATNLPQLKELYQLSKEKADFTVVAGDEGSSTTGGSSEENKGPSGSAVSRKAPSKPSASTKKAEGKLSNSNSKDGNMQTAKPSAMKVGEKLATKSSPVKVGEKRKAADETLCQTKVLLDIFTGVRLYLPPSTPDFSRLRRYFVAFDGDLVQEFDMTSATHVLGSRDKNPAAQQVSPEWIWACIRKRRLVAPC
# UniProt Q9BX40: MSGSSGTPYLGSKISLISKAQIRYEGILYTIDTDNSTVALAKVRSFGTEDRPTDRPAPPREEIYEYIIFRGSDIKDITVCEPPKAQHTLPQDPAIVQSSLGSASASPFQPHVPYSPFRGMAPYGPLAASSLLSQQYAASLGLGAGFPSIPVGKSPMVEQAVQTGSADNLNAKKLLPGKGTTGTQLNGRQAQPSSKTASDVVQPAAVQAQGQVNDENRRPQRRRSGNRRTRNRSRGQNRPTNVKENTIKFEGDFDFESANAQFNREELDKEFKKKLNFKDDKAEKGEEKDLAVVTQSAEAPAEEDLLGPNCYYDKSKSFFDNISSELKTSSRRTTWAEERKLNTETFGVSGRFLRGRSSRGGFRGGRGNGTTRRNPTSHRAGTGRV
# UniProt Q8N448: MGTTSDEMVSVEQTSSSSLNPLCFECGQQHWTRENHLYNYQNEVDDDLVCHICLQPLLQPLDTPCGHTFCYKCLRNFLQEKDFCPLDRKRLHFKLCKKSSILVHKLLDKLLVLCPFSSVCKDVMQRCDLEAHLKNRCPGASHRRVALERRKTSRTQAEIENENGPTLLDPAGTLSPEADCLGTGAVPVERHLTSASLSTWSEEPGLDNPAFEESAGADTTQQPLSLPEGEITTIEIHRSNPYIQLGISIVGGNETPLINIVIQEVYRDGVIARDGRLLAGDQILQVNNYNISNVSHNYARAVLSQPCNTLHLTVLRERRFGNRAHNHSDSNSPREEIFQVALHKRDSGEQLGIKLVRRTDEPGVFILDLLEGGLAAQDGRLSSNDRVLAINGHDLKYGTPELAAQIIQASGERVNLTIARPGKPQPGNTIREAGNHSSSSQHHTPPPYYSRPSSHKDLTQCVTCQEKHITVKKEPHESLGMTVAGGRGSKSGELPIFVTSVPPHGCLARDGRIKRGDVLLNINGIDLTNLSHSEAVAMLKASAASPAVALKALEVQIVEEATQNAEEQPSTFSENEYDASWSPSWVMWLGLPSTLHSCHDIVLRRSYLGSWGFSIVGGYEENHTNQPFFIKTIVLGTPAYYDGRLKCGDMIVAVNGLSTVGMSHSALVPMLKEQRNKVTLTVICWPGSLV
# UniProt O75427: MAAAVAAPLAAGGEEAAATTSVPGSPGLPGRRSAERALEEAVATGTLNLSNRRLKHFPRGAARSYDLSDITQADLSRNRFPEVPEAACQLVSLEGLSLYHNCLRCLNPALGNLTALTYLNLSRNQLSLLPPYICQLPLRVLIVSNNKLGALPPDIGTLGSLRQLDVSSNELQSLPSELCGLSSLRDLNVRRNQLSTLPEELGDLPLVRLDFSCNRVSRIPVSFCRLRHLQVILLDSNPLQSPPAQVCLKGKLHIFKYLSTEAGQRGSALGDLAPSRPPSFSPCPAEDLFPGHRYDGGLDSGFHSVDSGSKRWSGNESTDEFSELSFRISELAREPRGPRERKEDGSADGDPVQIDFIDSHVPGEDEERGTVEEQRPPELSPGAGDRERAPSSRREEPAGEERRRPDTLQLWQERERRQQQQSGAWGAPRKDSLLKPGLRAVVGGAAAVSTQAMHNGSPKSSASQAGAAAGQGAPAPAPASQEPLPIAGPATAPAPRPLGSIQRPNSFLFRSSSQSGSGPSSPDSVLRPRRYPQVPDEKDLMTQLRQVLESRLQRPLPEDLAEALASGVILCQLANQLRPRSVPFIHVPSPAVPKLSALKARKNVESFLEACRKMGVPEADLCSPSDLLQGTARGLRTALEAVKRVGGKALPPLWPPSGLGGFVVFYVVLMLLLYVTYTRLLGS
# UniProt P07864: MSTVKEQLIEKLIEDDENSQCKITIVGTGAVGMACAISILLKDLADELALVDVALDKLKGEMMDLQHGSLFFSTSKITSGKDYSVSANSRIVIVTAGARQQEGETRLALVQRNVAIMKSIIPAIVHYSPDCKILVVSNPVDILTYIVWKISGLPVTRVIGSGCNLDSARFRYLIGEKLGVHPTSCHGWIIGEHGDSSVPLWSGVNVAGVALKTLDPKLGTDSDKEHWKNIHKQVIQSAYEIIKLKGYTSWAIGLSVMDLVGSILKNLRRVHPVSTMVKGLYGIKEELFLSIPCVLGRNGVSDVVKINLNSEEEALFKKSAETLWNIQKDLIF
# UniProt Q9UGP4: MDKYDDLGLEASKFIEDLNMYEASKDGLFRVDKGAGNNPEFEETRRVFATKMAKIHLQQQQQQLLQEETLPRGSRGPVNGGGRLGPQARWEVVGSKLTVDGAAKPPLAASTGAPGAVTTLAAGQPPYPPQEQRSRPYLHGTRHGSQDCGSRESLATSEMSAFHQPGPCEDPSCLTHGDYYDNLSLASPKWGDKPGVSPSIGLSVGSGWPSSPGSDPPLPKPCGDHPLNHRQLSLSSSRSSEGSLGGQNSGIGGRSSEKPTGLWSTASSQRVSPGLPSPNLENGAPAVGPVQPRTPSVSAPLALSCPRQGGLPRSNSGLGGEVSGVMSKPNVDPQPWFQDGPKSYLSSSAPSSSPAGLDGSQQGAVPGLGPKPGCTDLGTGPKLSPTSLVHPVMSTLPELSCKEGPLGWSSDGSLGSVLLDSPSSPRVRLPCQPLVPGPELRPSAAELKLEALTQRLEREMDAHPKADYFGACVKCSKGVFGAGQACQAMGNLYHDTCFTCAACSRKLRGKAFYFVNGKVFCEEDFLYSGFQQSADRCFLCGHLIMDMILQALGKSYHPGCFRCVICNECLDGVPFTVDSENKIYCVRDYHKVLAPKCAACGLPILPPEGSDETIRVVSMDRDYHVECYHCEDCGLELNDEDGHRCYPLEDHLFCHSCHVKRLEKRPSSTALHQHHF
# UniProt Q9UFC0: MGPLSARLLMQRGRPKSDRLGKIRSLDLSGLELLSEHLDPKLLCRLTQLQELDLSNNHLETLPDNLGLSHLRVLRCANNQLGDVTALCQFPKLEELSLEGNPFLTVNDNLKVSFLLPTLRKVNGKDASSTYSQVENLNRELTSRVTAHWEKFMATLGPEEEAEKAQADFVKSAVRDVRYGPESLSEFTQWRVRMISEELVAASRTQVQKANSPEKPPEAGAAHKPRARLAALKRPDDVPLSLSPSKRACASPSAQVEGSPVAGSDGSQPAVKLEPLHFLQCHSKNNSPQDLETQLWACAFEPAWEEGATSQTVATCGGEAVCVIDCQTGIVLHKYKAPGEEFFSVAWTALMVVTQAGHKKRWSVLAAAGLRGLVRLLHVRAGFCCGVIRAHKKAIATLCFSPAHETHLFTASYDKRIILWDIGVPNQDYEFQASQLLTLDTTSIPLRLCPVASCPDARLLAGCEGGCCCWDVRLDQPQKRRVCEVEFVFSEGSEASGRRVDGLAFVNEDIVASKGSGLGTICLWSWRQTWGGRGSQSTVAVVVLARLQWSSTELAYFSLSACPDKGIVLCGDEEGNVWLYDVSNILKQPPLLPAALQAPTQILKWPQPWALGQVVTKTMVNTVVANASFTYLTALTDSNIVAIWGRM
# UniProt Q5SW96: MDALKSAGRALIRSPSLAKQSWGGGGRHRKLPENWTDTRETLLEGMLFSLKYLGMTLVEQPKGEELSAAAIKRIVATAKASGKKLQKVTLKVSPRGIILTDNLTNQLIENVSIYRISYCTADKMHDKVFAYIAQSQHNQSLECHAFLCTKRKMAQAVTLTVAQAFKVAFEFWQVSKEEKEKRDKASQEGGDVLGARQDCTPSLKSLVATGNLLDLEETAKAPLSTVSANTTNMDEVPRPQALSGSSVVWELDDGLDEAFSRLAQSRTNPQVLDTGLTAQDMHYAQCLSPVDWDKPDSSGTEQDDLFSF
# UniProt Q14847: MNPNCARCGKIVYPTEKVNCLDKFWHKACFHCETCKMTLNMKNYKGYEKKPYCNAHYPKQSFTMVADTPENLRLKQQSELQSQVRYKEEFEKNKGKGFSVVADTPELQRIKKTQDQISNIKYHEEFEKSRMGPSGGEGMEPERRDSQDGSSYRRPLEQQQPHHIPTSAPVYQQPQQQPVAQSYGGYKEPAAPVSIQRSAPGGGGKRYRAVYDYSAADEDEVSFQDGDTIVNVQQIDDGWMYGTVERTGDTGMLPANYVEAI
# UniProt Q8N9N7: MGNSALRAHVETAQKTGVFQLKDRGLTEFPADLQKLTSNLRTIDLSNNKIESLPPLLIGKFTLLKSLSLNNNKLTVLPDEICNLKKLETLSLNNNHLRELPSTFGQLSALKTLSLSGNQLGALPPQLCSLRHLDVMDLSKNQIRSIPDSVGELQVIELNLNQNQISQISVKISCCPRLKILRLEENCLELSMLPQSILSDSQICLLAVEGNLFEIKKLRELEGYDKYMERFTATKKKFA
# UniProt Q96GY3: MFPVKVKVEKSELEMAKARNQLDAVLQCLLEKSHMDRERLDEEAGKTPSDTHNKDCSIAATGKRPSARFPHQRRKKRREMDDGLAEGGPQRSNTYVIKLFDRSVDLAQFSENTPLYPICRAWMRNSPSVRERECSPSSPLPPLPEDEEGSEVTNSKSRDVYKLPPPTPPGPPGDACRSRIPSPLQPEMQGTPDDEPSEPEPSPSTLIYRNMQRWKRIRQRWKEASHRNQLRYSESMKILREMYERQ
# Some of the results follow.
# Experiments:
# Assay in all cases: log2 fold change, soluble protein after heating vs DMSO (PISA); higher = thermal stabilisation; K562 lysate, 10 uM; active = over 0.2 and 3.5 SD of the protein, either way, in both replicates (recomputed)
# nilotinib = compound: Cc1cn(-c2cc(NC(=O)c3ccc(C)c(Nc4nccc(-c5cccnc5)n4)c3)cc(C(F)(F)F)c2)cn1 [nilotinib]
# Summary of the method: (§1)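 Quantification was by TMTpro 16plex LC-MS/MS with equalised channel sums, applied to the supernatant after 21,000xg for 90 min. Samples were crude K562 extract at 1 mg/mL protein in PBS pH 7.4 with 1 mM MgCl2, treated with 10 μM compound for 30 min, heated for 3 min across 48°C-58°C, pooled and brought to 0.5% NP-40 at 4°C. Values are log-two fold changes in thermal stability relative to solvent controls, from duplicates.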
# [1] = compound: Cc1nc(Nc2n[nH]c3c2CN(C(=O)N[C@H](CN(C)C)c2ccccc2)C3(C)C)c2sccc2n1
# Summary of the method: as §1
# dasatinib = compound: Cc1nc(Nc2ncc(C(=O)Nc3c(C)cccc3Cl)s2)cc(N2CCN(CCO)CC2)n1 [dasatinib]
# Summary of the method: as §1
# [2] = compound: Cc1ncc(-c2ccnc(Nc3ccc(S(C)(=O)=O)cc3)n2)n1C(C)C
# Summary of the method: as §1
# [3] = compound: Cn1cc(-c2ccc3c(c2)CCN3C(=O)Cc2cccc(C(F)(F)F)c2)c2c(N)ncnc21
# Summary of the method: as §1
# quisinostat = compound: Cn1cc(CNCC2CCN(c3ncc(C(=O)NO)cn3)CC2)c2ccccc21 [quisinostat]
# Summary of the method: as §1
# tipifarnib = compound: Cn1cncc1[C@@](N)(c1ccc(Cl)cc1)c1ccc2c(c1)c(-c1cccc(Cl)c1)cc(=O)n2C [tipifarnib]
# Summary of the method: as §1
# [4] = compound: NC(=O)Nc1cc(-c2cccc(F)c2)sc1C(=O)N[C@H]1CCCNC1
# Summary of the method: as §1
# [5] = compound: NC(=O)c1cnc(N[C@@H]2CCCC[C@@H]2N)nc1Nc1cccc(-n2nccn2)c1
# Summary of the method: as §1
# [6] = compound: NC1(c2ccc(-c3nc4ccn5c(=O)[nH]nc5c4cc3-c3ccccc3)cc2)CCC1
# Summary of the method: as §1
Target,log2 fold change (nilotinib),log2 fold change [1],log2 fold change (dasatinib),log2 fold change [2],log2 fold change [3],log2 fold change (quisinostat),log2 fold change (tipifarnib),log2 fold change [4],log2 fold change [5],log2 fold change [6]
LRRC14 (UniProt Q15048),inactive: -0.017,inactive: 0.025,inactive: -0.055,inactive: -0.02,inactive: 0.058,inactive: -0.007,inactive: 0.03,inactive: 0.028,inactive: 0.02,inactive: -0.024
LDAH isoform 2 (UniProt Q9H6V9),inactive: -0.062,inactive: 0.023,inactive: -0.071,inactive: -0.003,inactive: 0.017,inactive: -0.022,inactive: -0.077,inactive: 0.037,inactive: -0.009,active: 0.307
LIG3 (UniProt P49916),inactive: 0.012,inactive: 0.002,inactive: -0.011,inactive: -0.019,inactive: 0.046,inactive: -0.024,inactive: -0.004,inactive: 0.059,inactive: 0.008,inactive: 0.011
LSM14B isoform 2 (UniProt Q9BX40),inactive: -0.034,inactive: 0.024,inactive: -0.001,inactive: 0.032,inactive: 0.029,inactive: -0.012,inactive: -0.054,inactive: 0.031,inactive: 0.032,inactive: 0.068
LNX2 (UniProt Q8N448),inactive: 0.021,inactive: 0.145,inactive: -0.077,inactive: 0.051,inactive: -0.062,,inactive: -0.207,,,inactive: 0.07
LRCH4 (UniProt O75427),inactive: 0.16,inactive: 0.18,inactive: -0.072,inactive: 0.011,inactive: 0.041,inactive: -0.041,inactive: -0.254,inactive: -0.002,inactive: -0.022,inactive: 0.025
LDHA (UniProt F5GZQ4),inactive: 0.024,inactive: -0.086,,inactive: 0.23,,,inactive: 0.003,,inactive: -0.207,
LDHC (UniProt P07864),inactive: 0.177,inactive: -0.016,inactive: 0.034,inactive: 0.04,inactive: -0.099,,inactive: 0.01,,inactive: 0.036,inactive: -0.079
LIMD1 (UniProt Q9UGP4),inactive: -0.01,inactive: -0.009,inactive: 0.034,inactive: 0.024,inactive: -0.03,inactive: -0.033,inactive: -0.032,inactive: 0.023,inactive: -0.004,inactive: 0.007
LRWD1 (UniProt Q9UFC0),inactive: 0.026,inactive: -0.05,inactive: -0.055,inactive: 0.017,inactive: 0.02,inactive: -0.132,inactive: 0.007,inactive: 0.053,inactive: 0.017,inactive: -0.033
LDLRAP1 (UniProt Q5SW96),inactive: 0.03,inactive: 0.013,inactive: -0.008,inactive: 0.039,inactive: 0.004,inactive: -0.025,inactive: -0.071,inactive: -0.003,,inactive: 0.04
LASP1 (UniProt Q14847),inactive: -0.067,inactive: 0.027,inactive: -0.014,inactive: 0.009,inactive: -0.003,inactive: -0.002,inactive: 0.062,inactive: -0.008,inactive: -0.009,inactive: 0.048
LEMD3 (UniProt Q9Y2U8),inactive: -0.021,inactive: -0.085,,inactive: 0.062,,inactive: -0.019,inactive: 0.011,inactive: 0.063,inactive: 0.019,inactive: -0.056
LRRC57 (UniProt Q8N9N7),inactive: 0.004,inactive: 0.004,inactive: 0.01,inactive: -0.023,inactive: -0.004,inactive: -0.023,inactive: 0.002,inactive: -0.07,inactive: 0.014,inactive: 0.032
LIN37 (UniProt Q96GY3),inactive: -0.071,inactive: 0.045,inactive: -0.024,inactive: -0.037,inactive: 0.029,inactive: -0.141,inactive: -0.076,inactive: 0.031,inactive: 0.041,inactive: -0.086

# For reference, part of the list above:
Target,log2 fold change (nilotinib),log2 fold change [1],log2 fold change (dasatinib),log2 fold change [2],log2 fold change [3],log2 fold change (quisinostat),log2 fold change (tipifarnib),log2 fold change [4],log2 fold change [5],log2 fold change [6]
LSM14B isoform 2 (UniProt Q9BX40),inactive: -0.034,inactive: 0.024,inactive: -0.001,inactive: 0.032,inactive: 0.029,inactive: -0.012,inactive: -0.054,inactive: 0.031,inactive: 0.032,inactive: 0.068
LNX2 (UniProt Q8N448),inactive: 0.021,inactive: 0.145,inactive: -0.077,inactive: 0.051,inactive: -0.062,,inactive: -0.207,,,inactive: 0.07
